{"source": "PubChem BioAssay AID493014", "about": "(National Center for Advancing Translational Sciences (NCATS), 2011)", "assay": "qHTS Assay to Find Inhibitors of Chronic Active B-Cell Receptor Signaling", "details": "ABC-DLBCL IkBa-CBG/CBR reporter, luminescence ratio (green luciferase fused to IkBa over red control in TMD8 lymphoma cells), 4 h", "summary_of_the_method": "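Compounds up to 46 uM were incubated four hours with TMD8 cells whose green CBG68 luciferase is fused to IkappaBalpha; red CBR luminescence normalised the signal, and concentration-effect curves were fitted to fusion, red and ratio data.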", "key": {"[1]": {"details": "measured here: CBR red luminescence, cell number"}, "[2]": {"details": "measured here: IkBa-CBG green luminescence"}}, "note": "Some of the results follow. These are further read-outs of the screen, such as a control signal, another cell line or another target. No call is given for them. The list favours compounds with an active or inconclusive main result. Words in brackets tell the shape of the fitted curve; partial curves, single points and poor fits give uncertain potencies.", "data": [{"smiles": "COc1cccc(C2=CC(c3ccccc3)n3ncnc3N2)c1", "note": "(centres undefined)", "values": [{"measurement": "AC50", "setting": "[1]", "value": "3.16 µM [falling, full curve, poor fit]"}]}, {"smiles": "COc1cccc(-c2csc(N3CCN(C(=O)Nc4ccc(F)cc4)CC3)n2)c1", "values": [{"measurement": "AC50", "setting": "[1]", "value": "29.1 µM [falling, single point]"}]}, {"smiles": "COc1cc(C(=O)Nc2cc(C)c(OCC(=O)N3CCOCC3)c(C)c2)cc(OC)c1OC", "values": [{"measurement": "AC50", "setting": "[1]", "value": "12.6 µM [rising, partial curve, poor fit]"}]}, {"smiles": "CCC(=O)Nc1cccc(NC(=S)NC(=O)c2ccccc2Cl)c1", "values": [{"measurement": "AC50", "setting": "[1]", "value": "0.562 µM [falling, full curve, poor fit]"}]}, {"smiles": "CC1(C)Cc2c(c(=S)nc(-c3ccccc3)n2CCO)CO1", "values": [{"measurement": "AC50", "setting": "[1]", "value": "29.1 µM [rising, single point]"}]}, {"smiles": "CC(=O)Nc1cccc(NC(=O)COc2ccc3c(c2)CCC3)c1", "values": [{"measurement": "AC50", "setting": "[1]", "value": "9.2 µM [falling, partial curve, poor fit]"}]}, {"smiles": "CCn1c(=O)cc(SCC(=O)NCc2ccccn2)c2ccccc21", "values": [{"measurement": "AC50", "setting": "[1]", "value": "35.5 µM [falling, single point]"}]}, {"smiles": "CC(=O)Nc1ccc(NC(=O)CCCNC(=O)c2ccc(Cl)cc2)cc1", "values": [{"measurement": "AC50", "setting": "[1]", "value": "15.8 µM [rising, partial curve, poor fit]"}]}, {"smiles": "Cc1cc(N/N=C/c2ccncc2)c([N+](=O)[O-])cc1[N+](=O)[O-]", "values": [{"measurement": "AC50", "setting": "[1]", "value": "0.794 µM [rising, full curve, poor fit]"}]}, {"smiles": "Cc1cc(C)n(CC(O)COc2ccccc2Br)n1", "note": "(centres undefined)", "values": [{"measurement": "AC50", "setting": "[1]", "value": "0.501 µM [falling, full curve, poor fit]"}]}, {"smiles": "CCOC(=O)CN(C(=O)COC(=O)C1=NNC(=O)CC1)c1ccc(F)cc1", "values": [{"measurement": "AC50", "setting": "[1]", "value": "29.1 µM [falling, partial curve, poor fit]"}]}, {"smiles": "COc1ccc(CCNC(=O)c2ccc(Cl)cc2Cl)cc1", "values": [{"measurement": "AC50", "setting": "[1]", "value": "16.4 µM [rising, single point]"}]}, {"smiles": "O=C(CCl)N=c1sccn1Cc1cccc2ccccc12", "values": [{"measurement": "AC50", "setting": "[1]", "value": "12.6 µM [falling, partial curve, poor fit]"}]}, {"smiles": "CC(=O)C1=C(N2CCCCC2)CCC1=O", "values": [{"measurement": "AC50", "setting": "[1]", "value": "6.51 µM [falling, single point]"}, {"measurement": "AC50", "setting": "[2]", "value": "2.91 µM [rising, partial curve, poor fit]"}]}, {"smiles": "Cc1ccc(Cc2c[nH]c(=S)s2)cc1", "values": [{"measurement": "AC50", "setting": "[1]", "value": "5.62 µM [rising, single point]"}]}, {"smiles": "CCOc1cccc(N2C(=O)CC(N3CCN(c4nc5ccccc5s4)CC3)C2=O)c1", "note": "(centres undefined)", "values": [{"measurement": "AC50", "setting": "[1]", "value": "0.651 µM [rising, full curve, poor fit]"}, {"measurement": "AC50", "setting": "[2]", "value": "1.64 µM [falling, partial curve, poor fit]"}]}, {"smiles": "COc1ccc(C(=O)OCCN2CCCCC2)cc1", "values": [{"measurement": "AC50", "setting": "[1]", "value": "1 µM [rising, partial curve, poor fit]"}]}, {"smiles": "Clc1ccc(-c2csc(N3CCSCC3)n2)cc1", "values": [{"measurement": "AC50", "setting": "[1]", "value": "32.6 µM [rising, single point]"}]}, {"smiles": "CC1(OC(=O)C2CCCC2)C(=O)C=C2C=C(c3ccsc3)N(C(CO)CO)C=C2C1=O", "note": "(centres undefined)", "values": [{"measurement": "AC50", "setting": "[1]", "value": "35.5 µM [rising, single point]"}]}, {"smiles": "COc1cccc(/C=C(/CC(=O)Nc2ccc(N3CCOCC3)cc2)c2nc3ccccc3s2)c1", "values": [{"measurement": "AC50", "setting": "[1]", "value": "13 µM [falling, partial curve]"}]}, {"smiles": "N#Cc1nnn(Cc2ccccc2)c1N", "values": [{"measurement": "AC50", "setting": "[1]", "value": "12.6 µM [falling, partial curve]"}]}, {"smiles": "COc1cccc(/C=C2\\Oc3cc(OCC(=O)N4CCCC4)ccc3C2=O)c1OC", "values": [{"measurement": "AC50", "setting": "[1]", "value": "25.1 µM [falling, single point]"}]}, {"smiles": "CCCCNC(=O)NCCN1CCOCC1", "values": [{"measurement": "AC50", "setting": "[1]", "value": "6.31 µM [rising, single point]"}]}, {"smiles": "CCc1ccccc1N(CC(=O)NCc1ccco1)C(=O)c1snc(C(N)=O)c1N", "values": [{"measurement": "AC50", "setting": "[1]", "value": "12.6 µM [falling, single point]"}]}, {"smiles": "Cc1ccc(-c2nc(S(=O)(=O)c3ccc(C)cc3)c(N3CCOCC3)o2)cc1", "values": [{"measurement": "AC50", "setting": "[1]", "value": "15.8 µM [rising, partial curve, poor fit]"}]}, {"smiles": "O=C(N/N=C/c1ccc(Cl)s1)C(O)c1ccccc1", "note": "(centres undefined)", "values": [{"measurement": "AC50", "setting": "[1]", "value": "35.5 µM [falling, single point]"}]}, {"smiles": "COc1ccc(NC(=O)CO/N=C2/CCCc3nonc32)c(OC)c1", "values": [{"measurement": "AC50", "setting": "[1]", "value": "35.5 µM [falling, single point]"}]}, {"smiles": "CC(Sc1nc(N)cc(N)n1)C(=O)NCCC1=CCCCC1", "note": "(centres undefined)", "values": [{"measurement": "AC50", "setting": "[1]", "value": "6.51 µM [falling, single point]"}]}, {"smiles": "COc1ccc(C(=O)N2CCC(C(=O)Nc3ccc(OC)c(OC)c3)CC2)cc1", "values": [{"measurement": "AC50", "setting": "[1]", "value": "0.562 µM [falling, full curve]"}]}, {"smiles": "Cc1cc(N)n2nc(-c3ccccc3)cc2n1", "values": [{"measurement": "AC50", "setting": "[1]", "value": "1.16 µM [falling, full curve, poor fit]"}]}, {"smiles": "Cc1cc2ccc(C)c(C)c2nc1SCC(=O)c1cccs1", "values": [{"measurement": "AC50", "setting": "[1]", "value": "16.4 µM [rising, single point]"}]}, {"smiles": "Cc1cc(NC(=O)c2ccc([N+](=O)[O-])o2)ccc1NC(=O)c1ccco1", "values": [{"measurement": "AC50", "setting": "[1]", "value": "35.5 µM [falling, single point]"}]}, {"smiles": "CCOC(=O)N1CCN(c2c(NCCN3CCN(c4ccccc4F)CC3)c(=O)c2=O)CC1", "values": [{"measurement": "AC50", "setting": "[1]", "value": "22.4 µM [rising, single point]"}]}, {"smiles": "COC(=O)CCC(=O)Nc1cccc(Br)c1", "values": [{"measurement": "AC50", "setting": "[1]", "value": "0.461 µM [rising, single point]"}]}, {"smiles": "N#CCCCSc1nnc(-c2ccc(Cl)cc2)n1-c1ccccc1", "values": [{"measurement": "AC50", "setting": "[1]", "value": "11.2 µM [falling, partial curve, poor fit]"}]}, {"smiles": "Cn1c(-c2ccccc2)c(C(=O)CCl)c2ccccc21", "values": [{"measurement": "AC50", "setting": "[1]", "value": "8.91 µM [falling, partial curve, poor fit]"}]}, {"smiles": "CCc1nnc(NC(=O)CSc2ncnc3c2oc2ccccc23)s1", "values": [{"measurement": "AC50", "setting": "[1]", "value": "2.06 µM [falling, partial curve]"}]}, {"smiles": "O=C(Nc1ccc(N2CCOCC2)c(Cl)c1)c1c(F)c(F)c(F)c(F)c1F", "values": [{"measurement": "AC50", "setting": "[1]", "value": "0.651 µM [falling, full curve]"}]}, {"smiles": "Cc1c(C(=O)OCC(=O)N2CC(=O)Nc3ccccc32)oc2ccc(Br)cc12", "values": [{"measurement": "AC50", "setting": "[1]", "value": "0.00517 µM [falling, full curve, poor fit]"}]}, {"smiles": "Cc1nc(N(CCO)C2CCCCC2)c2nnn(Cc3ccccc3)c2n1", "values": [{"measurement": "AC50", "setting": "[1]", "value": "35.5 µM [falling, single point]"}]}, {"smiles": "COC(=O)CNC(=O)c1ccc(OC2CCN(C(=O)C3CC3)CC2)cc1", "values": [{"measurement": "AC50", "setting": "[1]", "value": "14.1 µM [falling, partial curve, poor fit]"}]}, {"smiles": "CCN(CC)S(=O)(=O)c1cccc(N=Nc2c(O)c3ccccc3oc2=O)c1", "values": [{"measurement": "AC50", "setting": "[1]", "value": "3.55 µM [falling, partial curve, poor fit]"}]}]}
